The nature of the data set: peptide synthesis. The settings on record: oxidative folding step, on reduced peptide (10 mg), several disulfide bridges, sequence written open.

End groups of sequences in plain letters are not given here.

“DFDPTEFKGPFPTIEICSKYCAVVCNYTSRPCYCVEAAKERDQWFPYCYD (listed as Acyrthosiphon pisum)” yielded an oxidative folding yield of 22%.

For the origin of these results see patent US20210137126A1 (INSTITUT NATIONAL DES SCIENCES APPLIQUEES DE LYON, priority 2018, published 2021).
